In patent JP2012115243A:
No constants are given. Whether binding was seen depends on the method and setting. Some entries that bind do so weakly or less than the wild type.

T1: MT1−MMPヒンジ領域ペプチド (mouse)
T1 sequence (peptide): PQPRTTSRPSVPDKPKNC

B1: ハイブリドーマ66Cで生成した抗体(抗体K9E) (antibody, V domains shown)
VH: QIQLVQSGPELKKPGETVKISCKASGYTFTSYALHWVKQAPGKGLKWMGWKYTNTGEPTYGDDFKGRFAFSLETSASTAYLQINNLKNEDMATYFCARGGLSSYAMDYWGQGTSVTVSS
VL: DIVMSQSPSSLAVSAGEKVTMSCKSSQSLLNSRTRKNYLAWYQQKPGQSPKLLIYWASTRESGVPDRFTGTGSGTDFTLTISSVQAEDLAVYYCKQSYNLLVTFGAGTKLELKR
B2: 抗MT1−MMP抗体MMPK9I (ハイブリドーマ19Bが産生する抗体IgG) (antibody, V domains shown)
VH: QVQLQQSGAELVRPGASVTLSCKASGYRFTDYEMHWVRQTPVHGLEWIGAIDPETGGTAYNQKFKGKATLTEDKSSSTAYMELRSLTSEDSAVYYCTTMITTALDYWGQGTSVTVSS
VL: DVLMTQTPLSLPVSLGDQASISCRSSQSIVHSDGNTYLEWYLQKPGQSPKVLIYKVSNRFSGVPDRFSGSGSGTDFTLKITRVEAEDLGVYYCFQGSHVPYTFGGGTKLEIKR

Biological target: T1, MT1−MMPヒンジ領域ペプチド (mouse)
Test: indirect competition ELISA, hybridoma supernatant, free hinge peptide against immobilised immunogen

| Binder | binding |
| --- | --- |
| B1 | binds |
| B2 | binds |
